Results of single-concentration screens

Chains of the proteins cited; added tags and fusions are not shown. Residues count along the entry.
UniProt P9WNZ1, whole entry: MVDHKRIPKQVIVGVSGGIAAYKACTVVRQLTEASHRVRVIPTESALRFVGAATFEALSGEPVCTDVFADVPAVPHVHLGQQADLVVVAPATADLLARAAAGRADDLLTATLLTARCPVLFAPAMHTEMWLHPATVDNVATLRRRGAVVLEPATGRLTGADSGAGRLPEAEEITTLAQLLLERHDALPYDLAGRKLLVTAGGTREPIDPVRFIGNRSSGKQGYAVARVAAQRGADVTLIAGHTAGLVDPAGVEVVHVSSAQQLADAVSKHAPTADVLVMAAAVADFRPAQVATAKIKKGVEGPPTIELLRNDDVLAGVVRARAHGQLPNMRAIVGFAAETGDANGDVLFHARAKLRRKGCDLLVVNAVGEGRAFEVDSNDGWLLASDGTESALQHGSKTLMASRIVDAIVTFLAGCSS
UniProt P9WFT3, whole entry: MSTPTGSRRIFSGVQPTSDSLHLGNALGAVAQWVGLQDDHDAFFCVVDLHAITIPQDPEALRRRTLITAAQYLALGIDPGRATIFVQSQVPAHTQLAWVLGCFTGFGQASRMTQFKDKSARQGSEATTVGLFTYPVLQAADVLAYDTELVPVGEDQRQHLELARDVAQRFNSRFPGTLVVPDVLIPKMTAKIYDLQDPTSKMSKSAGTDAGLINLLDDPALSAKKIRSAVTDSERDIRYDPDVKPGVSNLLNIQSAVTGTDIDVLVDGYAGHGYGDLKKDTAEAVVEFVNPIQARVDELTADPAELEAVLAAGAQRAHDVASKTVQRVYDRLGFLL
UniProt P9WPC5, whole entry: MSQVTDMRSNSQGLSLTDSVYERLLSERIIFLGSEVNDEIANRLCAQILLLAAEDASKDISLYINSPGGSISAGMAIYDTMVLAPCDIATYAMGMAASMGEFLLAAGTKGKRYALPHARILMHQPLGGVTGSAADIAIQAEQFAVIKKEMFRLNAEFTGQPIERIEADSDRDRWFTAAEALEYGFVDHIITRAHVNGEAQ
UniProt P9WPC3, whole entry partner: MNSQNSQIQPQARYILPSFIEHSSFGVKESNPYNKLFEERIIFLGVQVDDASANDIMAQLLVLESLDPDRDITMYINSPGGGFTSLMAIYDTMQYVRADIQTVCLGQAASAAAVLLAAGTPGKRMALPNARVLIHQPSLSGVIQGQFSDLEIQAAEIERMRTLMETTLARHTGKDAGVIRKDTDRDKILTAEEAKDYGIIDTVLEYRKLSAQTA
UniProt A4I591, 1-473: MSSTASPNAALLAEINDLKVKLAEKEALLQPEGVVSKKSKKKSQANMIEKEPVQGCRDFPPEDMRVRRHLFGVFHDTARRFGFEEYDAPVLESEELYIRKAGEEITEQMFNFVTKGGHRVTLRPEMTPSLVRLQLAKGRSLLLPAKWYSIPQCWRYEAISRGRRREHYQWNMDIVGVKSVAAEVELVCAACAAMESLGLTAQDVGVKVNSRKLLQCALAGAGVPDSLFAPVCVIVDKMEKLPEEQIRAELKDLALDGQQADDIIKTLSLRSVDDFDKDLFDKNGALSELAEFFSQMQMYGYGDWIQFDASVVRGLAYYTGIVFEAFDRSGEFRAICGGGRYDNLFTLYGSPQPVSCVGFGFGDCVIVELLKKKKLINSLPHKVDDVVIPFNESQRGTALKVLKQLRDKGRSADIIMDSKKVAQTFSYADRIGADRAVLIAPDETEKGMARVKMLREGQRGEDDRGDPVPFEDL
UniProt Q4DA54, 1-478: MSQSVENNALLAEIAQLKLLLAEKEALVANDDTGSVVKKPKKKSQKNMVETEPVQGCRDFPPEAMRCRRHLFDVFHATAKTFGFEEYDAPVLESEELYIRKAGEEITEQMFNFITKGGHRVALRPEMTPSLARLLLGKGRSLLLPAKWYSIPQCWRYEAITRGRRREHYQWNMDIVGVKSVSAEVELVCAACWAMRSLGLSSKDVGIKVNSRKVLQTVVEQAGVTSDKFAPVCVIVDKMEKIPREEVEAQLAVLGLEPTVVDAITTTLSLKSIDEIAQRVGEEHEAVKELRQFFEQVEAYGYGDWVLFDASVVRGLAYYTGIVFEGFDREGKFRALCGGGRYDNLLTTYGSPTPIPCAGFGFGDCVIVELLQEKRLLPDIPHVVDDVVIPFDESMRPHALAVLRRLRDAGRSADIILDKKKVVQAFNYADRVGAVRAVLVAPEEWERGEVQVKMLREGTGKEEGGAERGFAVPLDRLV

The values are deposited in ChEMBL (CHEMBL3988442, “University of Dundee, Small-Polar-MMV Screening Library” (2021)).

Results are given as percent effect.
How 0% and 100% were set is not recorded. Most values in the screen are low, and negative values occur.
Compounds were drawn at random from those tested, without regard to their results.

CoaBC: 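Enzyme assay of CoaBC with a phosphate dye (Biomol Green) read at 650 nm. Target: Coenzyme A biosynthesis protein CoaBC, Mycobacterium tuberculosis (UniProt P9WNZ1). Compounds at 30 µM. Direction is inferred from only a few compounds that gave an IC50; most scored high, so higher reads as stronger inhibition. Most strong results did not repeat in a second test. About 67,000 compounds were tested under these conditions; 0.06% (about 40) showed 50% or more at least once.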
MtTrpRS: 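Tryptophan-tRNA ligase, Mycobacterium tuberculosis (UniProt P9WFT3). Enzyme assay of tryptophanyl-tRNA synthetase; the read-out is not stated. Compounds at 10 µM. Higher most likely means stronger inhibition; the record gives no direction and few retests gave an IC50. Size under these conditions: about 65,000 compounds, about 64 of them at 50% or above in at least one test.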
ClpP1P2: 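ClpP1P2, Mycobacterium tuberculosis (UniProt P9WPC5 and UniProt P9WPC3). Protease assay of ClpP1P2, read by the AMC dye that it sets free. Concentration: 50 µM. Higher reads as stronger inhibition, judged from the few compounds that gave an IC50. Most other retested compounds had strongly negative values. About 69,000 compounds were tested under these conditions; 0.015% (about 10) showed 50% or more at least once.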
LiHisRS: 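Enzyme assay of histidyl-tRNA synthetase; the read-out is not stated. Target: Histidine-tRNA ligase, Leishmania infantum (UniProt A4I591). Compounds at 30 µM. Higher reads as stronger inhibition (inferred: compounds with an IC50 in retests scored well above the rest). The assay is labelled LdHisRS but filed under L. infantum. About 69,000 compounds were tested under these conditions; 0.6% (about 410) showed 50% or more at least once.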
TcHisRS: 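Enzyme assay of histidyl-tRNA synthetase; the read-out is not stated. Target: Histidine-tRNA ligase, Trypanosoma cruzi CL Brener (UniProt Q4DA54). Tested at 30 µM. The record gives no direction; compounds that gave an IC50 in retests scored well above the rest, so higher reads as stronger inhibition. Size under these conditions: about 69,000 compounds, about 31 of them at 50% or above in at least one test.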

c1ncc2c(n1)CN(c1ncnc3[nH]ccc13)CC2 read CoaBC: -4.126%; MtTrpRS: 2.592%; ClpP1P2: -4.593%; LiHisRS: 21.43%; TcHisRS: 18.81%.
Cc1nc(CN2CC3(CCN(c4nccs4)C3)CC2=O)cs1 (stereo not shown) read CoaBC: 3.759%; MtTrpRS: 1.521%; ClpP1P2: 0.6443%; LiHisRS: 28.21%; TcHisRS: 8.537%.
CC(Cn1cccn1)NC(=O)Nc1ccc(N(C)C)nc1 (stereo not shown) read CoaBC: -4.641%; MtTrpRS: 9.289%; ClpP1P2: 3.786%; LiHisRS: 14.42%; TcHisRS: 2.439%.
CCc1nnsc1C(=O)N1CCCN(Cc2ccc(C)cc2)CC1 read CoaBC: 11.88%; MtTrpRS: -1.058%; ClpP1P2: -3.404%; LiHisRS: -14.88%; TcHisRS: -2.521%.
COc1ccc(NC(=O)NC(C)Cn2cccn2)cn1 (stereo not shown) read CoaBC: -13.61%; MtTrpRS: 3.047%; ClpP1P2: 0.7754%; LiHisRS: 21.21%; TcHisRS: 1.058%.
Cc1ccc(CNC2(Cc3cc(-c4cccc(O)c4)on3)COC2)o1 read CoaBC: 6.402%; MtTrpRS: 0.9863%; ClpP1P2: 6.731%; LiHisRS: 12.16%; TcHisRS: 3.261%.
Cc1cc(C(=O)NCC(=O)N2CCOCC2)nn1C(C)(C)C read CoaBC: 9.159%; MtTrpRS: 1.224%; ClpP1P2: -4.516%; LiHisRS: -3.614%; TcHisRS: 2.488%.
Cc1ccc(C(=O)N2CCCCC2c2[nH]ncc2S(C)(=O)=O)cn1 (stereo not shown) read CoaBC: -1.699%; ClpP1P2: 11.08%; LiHisRS: 15.94%; TcHisRS: 7.692%.
NC(=O)CN1C(=O)CO[C@H]2CN(Cc3ccc(F)c(F)c3)C[C@H]21 read CoaBC: 10.81%; MtTrpRS: -2.212%; ClpP1P2: -2.044%; LiHisRS: 27.03%; TcHisRS: -1.493%.
O=C(NCc1ccco1)[C@@]12CCO[C@@H]1CCN(Cc1nccs1)C2 read CoaBC: 2.932%; MtTrpRS: 0.4882%; ClpP1P2: 0.4557%; LiHisRS: 25.71%; TcHisRS: 4.902%.
CSc1ccc(OCCN2CCNC(=O)CC2)cc1 read CoaBC: 3.89%; MtTrpRS: 6.886%; ClpP1P2: -5.303%; LiHisRS: 18.07%; TcHisRS: 9.453%.
COc1ccc2c(c1)CCCN(C(=O)NCC1CCCO1)C2 (stereo not shown) read CoaBC: 3.56%; MtTrpRS: 1.817%; ClpP1P2: -5.043%; LiHisRS: 27.06%; TcHisRS: 12.06%.
CC(C)c1nnc(NC(=O)NCc2ccnc(N(C)C)c2)s1 read CoaBC: 8.094%; MtTrpRS: -2.827%; ClpP1P2: -1.303%; LiHisRS: 13.51%; TcHisRS: 3.383%.
CCCS(=O)(=O)N1CCCN(CCCOC)CC1 read CoaBC: 3.648%; MtTrpRS: -2.177%; ClpP1P2: -8.232%; LiHisRS: -1.77%; TcHisRS: 2.679%.
CCn1cc(C(=O)N2CCOCC2)cn1 read CoaBC: 7.052%; MtTrpRS: 0.7897%; ClpP1P2: -3.979%; LiHisRS: 16.07%; TcHisRS: 2.632%.
Cc1ccc([C@]2(O)CC[C@H]3CN(Cc4ccncc4)C[C@H]32)nc1 read CoaBC: -1.211%; ClpP1P2: 23.89%; LiHisRS: 0%; TcHisRS: -20%.
Cn1cc(C2CCCN2Cc2cscn2)cn1 (stereo not shown) read CoaBC: 0.2625%; MtTrpRS: -1.605%; ClpP1P2: -19.13%; LiHisRS: -1.695%; TcHisRS: 2.286%.
Cc1nc(CNC(=O)N2CCCC(c3ncc[nH]3)C2)sc1C (stereo not shown) read CoaBC: 5.063%; MtTrpRS: -3.193%; ClpP1P2: -9.29%; LiHisRS: 11.69%; TcHisRS: 2.463%.
Cc1cc(C2CCCN2C(=O)c2cc3c(s2)CCC3)no1 (stereo not shown) read CoaBC: 1.531%; MtTrpRS: 0.8855%; ClpP1P2: -17.03%; LiHisRS: -30.91%; TcHisRS: -9.942%.
CN(C)C(=O)CN1CC[C@H]2[C@H]1CCN2c1ncccn1 read CoaBC: 5.092%; MtTrpRS: 0.1804%; ClpP1P2: 10.62%; LiHisRS: 7.895%; TcHisRS: 3.448%.
Cc1ccc2c(n1)N(CCn1cccn1)CCN(C(=O)NC1CC1)C2 read CoaBC: -6.167%; MtTrpRS: 2.347%; ClpP1P2: -1.955%; LiHisRS: 30.19%; TcHisRS: 3.39%.
CN(CC1CCCCO1)c1nc2c(cc1C(N)=O)CCC2 (stereo not shown) read CoaBC: 2.822%; MtTrpRS: -2.056%; ClpP1P2: -11.26%; LiHisRS: 11.76%; TcHisRS: 4.938%.
Cc1ncccc1CNCC1COC2(CCCCC2)O1 (stereo not shown) read CoaBC: -0.9662%; MtTrpRS: 0.5455%; ClpP1P2: 3.581%; LiHisRS: 7.071%; TcHisRS: 5.806%.
Cc1ncsc1C(=O)NC1CCN(Cc2cccnc2)CC1 read CoaBC: 1.687%; MtTrpRS: 0.2398%; ClpP1P2: 4.818%; LiHisRS: 10.96%; TcHisRS: -0.7634%.
CSc1ncccc1C(=O)N1C[C@H]2CC[C@@H]1CN(C(=O)N(C)C)C2 read CoaBC: 2.343%; MtTrpRS: -3.904%; ClpP1P2: -16.27%; LiHisRS: 12.9%; TcHisRS: 5.263%.
O=C(O)Cn1nc(C2CC2)c2c(-c3cccs3)ccnc21 read CoaBC: -2.651%; MtTrpRS: 5.502%; ClpP1P2: -8.447%; LiHisRS: 12.09%; TcHisRS: -0.9901%.
CN(C)C1CC2(CCN(C(=O)NC3CC3)CC2)c2ccccc21 (stereo not shown) read CoaBC: 1.724%; MtTrpRS: -9.567%; ClpP1P2: 1.846%; LiHisRS: 16%; TcHisRS: 0%.
CC(C)(O)CCc1ccc(C(=O)N2Cc3cnn(CCO)c3C2)cc1 read CoaBC: 5.052%; MtTrpRS: 14.7%; ClpP1P2: -2.165%; LiHisRS: 20.41%; TcHisRS: 5.128%.

Once more, the final 2:

| compound | CoaBC | MtTrpRS | ClpP1P2 | LiHisRS | TcHisRS |
|---|---|---|---|---|---|
| `CN(C)C1CC2(CCN(C(=O)NC3CC3)CC2)c2ccccc21` (stereo not shown) | 1.724% | -9.567% | 1.846% | 16% | 0% |
| `CC(C)(O)CCc1ccc(C(=O)N2Cc3cnn(CCO)c3C2)cc1` | 5.052% | 14.7% | -2.165% | 20.41% | 5.128% |